According to article PMC13189621:
No constants are given. Whether binding was seen depends on the method and setting. In cells and extracts the contact can be indirect. Some results given as binding are weak or reduced against the parent protein; the word gives no strength.

Protein sequences, listed by entry. Tags and fused reporters are not part of them.
UniProt Q9Y4I1: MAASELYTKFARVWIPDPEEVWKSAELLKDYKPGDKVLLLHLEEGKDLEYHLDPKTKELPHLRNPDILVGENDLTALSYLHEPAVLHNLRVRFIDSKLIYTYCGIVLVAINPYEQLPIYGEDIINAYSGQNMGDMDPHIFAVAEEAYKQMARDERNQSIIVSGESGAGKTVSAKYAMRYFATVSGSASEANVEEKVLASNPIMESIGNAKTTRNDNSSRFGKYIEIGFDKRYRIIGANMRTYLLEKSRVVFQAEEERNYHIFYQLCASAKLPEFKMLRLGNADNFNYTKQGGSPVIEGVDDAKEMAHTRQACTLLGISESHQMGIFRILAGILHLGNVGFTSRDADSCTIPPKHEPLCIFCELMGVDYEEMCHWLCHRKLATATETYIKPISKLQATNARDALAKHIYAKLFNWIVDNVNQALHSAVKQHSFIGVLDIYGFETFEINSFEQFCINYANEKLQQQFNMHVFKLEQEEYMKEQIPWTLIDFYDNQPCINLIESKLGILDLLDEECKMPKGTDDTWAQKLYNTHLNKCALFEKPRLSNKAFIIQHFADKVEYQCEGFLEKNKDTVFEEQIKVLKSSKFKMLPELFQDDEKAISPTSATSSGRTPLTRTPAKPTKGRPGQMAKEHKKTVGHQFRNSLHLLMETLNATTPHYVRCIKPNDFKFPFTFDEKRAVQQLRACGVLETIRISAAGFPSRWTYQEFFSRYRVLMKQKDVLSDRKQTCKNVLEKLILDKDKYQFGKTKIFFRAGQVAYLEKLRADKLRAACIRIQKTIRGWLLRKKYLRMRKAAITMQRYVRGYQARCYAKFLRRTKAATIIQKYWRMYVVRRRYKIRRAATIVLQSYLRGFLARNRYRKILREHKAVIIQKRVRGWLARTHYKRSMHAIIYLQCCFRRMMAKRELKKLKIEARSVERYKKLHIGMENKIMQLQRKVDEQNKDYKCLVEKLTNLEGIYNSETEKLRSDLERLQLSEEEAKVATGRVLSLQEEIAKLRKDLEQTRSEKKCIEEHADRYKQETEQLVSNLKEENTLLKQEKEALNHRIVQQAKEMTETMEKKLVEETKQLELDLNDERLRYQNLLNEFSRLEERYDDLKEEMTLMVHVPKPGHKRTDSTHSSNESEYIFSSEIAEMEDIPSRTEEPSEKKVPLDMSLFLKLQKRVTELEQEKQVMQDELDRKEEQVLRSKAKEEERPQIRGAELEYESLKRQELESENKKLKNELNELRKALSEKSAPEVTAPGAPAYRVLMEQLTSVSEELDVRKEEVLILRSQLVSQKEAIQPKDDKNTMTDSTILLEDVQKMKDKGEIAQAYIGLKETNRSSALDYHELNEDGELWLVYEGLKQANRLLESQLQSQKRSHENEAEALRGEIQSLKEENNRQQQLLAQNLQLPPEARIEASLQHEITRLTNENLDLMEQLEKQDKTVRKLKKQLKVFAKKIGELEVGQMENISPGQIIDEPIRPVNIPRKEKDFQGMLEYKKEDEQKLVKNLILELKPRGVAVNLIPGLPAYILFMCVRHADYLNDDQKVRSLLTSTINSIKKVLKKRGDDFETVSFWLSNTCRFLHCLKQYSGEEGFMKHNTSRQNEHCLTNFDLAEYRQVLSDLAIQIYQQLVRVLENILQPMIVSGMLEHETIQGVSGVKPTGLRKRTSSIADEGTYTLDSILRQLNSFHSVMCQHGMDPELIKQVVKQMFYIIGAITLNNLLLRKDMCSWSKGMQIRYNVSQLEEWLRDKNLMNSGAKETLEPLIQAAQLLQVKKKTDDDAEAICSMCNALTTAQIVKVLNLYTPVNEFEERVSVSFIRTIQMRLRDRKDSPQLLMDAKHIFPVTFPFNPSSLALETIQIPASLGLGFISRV
UniProt Q8TAG9: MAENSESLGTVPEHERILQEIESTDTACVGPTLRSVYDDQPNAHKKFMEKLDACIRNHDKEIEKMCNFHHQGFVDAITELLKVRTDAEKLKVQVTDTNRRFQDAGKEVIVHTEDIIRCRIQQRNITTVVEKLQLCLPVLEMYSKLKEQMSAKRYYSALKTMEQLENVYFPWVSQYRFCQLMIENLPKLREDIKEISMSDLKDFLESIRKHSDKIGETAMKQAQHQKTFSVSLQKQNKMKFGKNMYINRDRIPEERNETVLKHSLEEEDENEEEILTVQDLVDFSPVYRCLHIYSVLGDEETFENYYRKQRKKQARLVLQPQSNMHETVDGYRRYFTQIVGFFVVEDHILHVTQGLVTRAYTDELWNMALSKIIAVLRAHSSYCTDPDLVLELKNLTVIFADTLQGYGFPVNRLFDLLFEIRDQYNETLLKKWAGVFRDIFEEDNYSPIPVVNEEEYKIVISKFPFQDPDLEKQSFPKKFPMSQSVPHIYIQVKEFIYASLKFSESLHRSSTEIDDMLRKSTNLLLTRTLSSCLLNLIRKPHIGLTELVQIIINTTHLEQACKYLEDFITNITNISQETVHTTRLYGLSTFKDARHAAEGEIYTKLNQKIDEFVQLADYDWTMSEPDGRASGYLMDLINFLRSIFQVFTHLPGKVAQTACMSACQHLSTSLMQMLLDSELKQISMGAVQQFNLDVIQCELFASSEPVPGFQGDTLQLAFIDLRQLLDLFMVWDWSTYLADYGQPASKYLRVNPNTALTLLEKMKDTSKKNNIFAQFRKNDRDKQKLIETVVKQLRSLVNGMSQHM

Target: myosin-Va (human (endogenous in RPE1)) (UniProt Q9Y4I1)
Assay: co-IP; RPE1 cells lysed in RIPA buffer (50 mM Tris-HCl pH 8.0, 150 mM NaCl, 1% NP-40, 0.5% sodium deoxycholate); lysates immunoprecipitated with EXOC6A or Myo-Va antibodies for 2 hr at 4°C, Protein G Sepharose overnight at 4°C, three washes with RIPA buffer, immunoblotting

EXOC6A (from UniProt Q8TAG9 1-804)
binding: binds
